At least one structure is not confirmed: it was looked up by name or label, or the drawing left a doubt.
How the values were obtained:
[1] = system: cell surface PD-L1, A375 melanoma or A549 lung cancer cell lines; experiment: cell surface PD-L1 expression in the cell line studies; type: cell-based
[2] = system: OX40L mRNA in melanoma (A375) cell line; experiment: OX40L mRNA expression by RT-qPCR (FIG. 4), A375; type: cell-based; conditions: NUC-7738 treated
[3] = system: OX40L mRNA in lung cancer (A549) cell line; experiment: OX40L mRNA expression by RT-qPCR (FIG. 4), A549; type: cell-based; conditions: NUC-7738 treated
[4] = system: exosomal PD-L1; experiment: exosomal PD-L1 in plasma of patients treated with NUC-7738 (capillary-based immune probing, PD-L1/CD81); type: in vivo, human; conditions: 15 days after initial NUC-7738 administration; plasma exosomes
Experimental: Patients were treated with NUC-7738 on days 1 and 8 of a 14-day cycle. Patient plasma samples were collected pre-dose, 24 hr after NUC-7738 dosage and the 24 hours post Cycle 2 (that is the second occasion at which patients received treatment).
Patient plasma samples were centrifuged at 3000×g for 15 minutes to remove cellular debris. Then, the supernatant was aliquoted in 250 μL measures and stored in−80° C. freezers. For exosomal isolation ExoQuick® ULTRA EV Isolation Kit for Serum and Plasma (System Biosciences Cat #EQULTRA-20A-1) according to manufacturer's protocol. In brief, 250 μL of plasma samples free of cellular debris was used and 67 μL ExoQuick Solution was added, followed by a 30 minute incubation period at 4° C. After that, the plasma sample and ExoQuick Solution mixture were centrifuged at 3000×g for 10 minutes. Then, carefully without disturbing the pellet, all of the supernatant was aspirated off, making sure no residual traces remained. […] The eluted samples were quantified for protein concentration using Qubit™ Protein and Protein Broad Range (BR) Assay Kits (Thermofisher Cat #A50668). […]
Analysis of PD-L1 expression in exosomes isolated from plasma samples was carried out using automated western blotting JESS system (BioTechne, ProteinSimples). […] The expression was determined by the area under the curve using Compass Software v 6.1 (ProteinSimple).

C[C@H](NP(=O)(OC[C@@H]1CC(O)[C@H](n2cnc3c(N)ncnc32)O1)Oc1ccccc1)C(=O)OCc1ccccc1 (stereo partly drawn) [NUC-7738, 3′-deoxyadenosine-5′-O-[phenyl(benzyloxy-L-alaninyl)] phosphate]
cell surface PD-L1 expression [1]: did not alter
level of mRNA coding for OX40L (FIG. 4) [2]: increased
level of mRNA coding for OX40L (FIG. 4) [3]: increased
patients in whom the ratio of PD-L1 and exosome marker CD81 is reduced [4]: 3 of 4
